Data on two substances can be found in article PMC8282835.

Protein sequences, listed by entry. Tags and fused reporters are not part of them. Lines headed by an entry give the natural chain unless they say otherwise; changes in a name come on top. Chains listed by the source or under a name are the forms on record and can include a tag or linker.
UniProt P10070: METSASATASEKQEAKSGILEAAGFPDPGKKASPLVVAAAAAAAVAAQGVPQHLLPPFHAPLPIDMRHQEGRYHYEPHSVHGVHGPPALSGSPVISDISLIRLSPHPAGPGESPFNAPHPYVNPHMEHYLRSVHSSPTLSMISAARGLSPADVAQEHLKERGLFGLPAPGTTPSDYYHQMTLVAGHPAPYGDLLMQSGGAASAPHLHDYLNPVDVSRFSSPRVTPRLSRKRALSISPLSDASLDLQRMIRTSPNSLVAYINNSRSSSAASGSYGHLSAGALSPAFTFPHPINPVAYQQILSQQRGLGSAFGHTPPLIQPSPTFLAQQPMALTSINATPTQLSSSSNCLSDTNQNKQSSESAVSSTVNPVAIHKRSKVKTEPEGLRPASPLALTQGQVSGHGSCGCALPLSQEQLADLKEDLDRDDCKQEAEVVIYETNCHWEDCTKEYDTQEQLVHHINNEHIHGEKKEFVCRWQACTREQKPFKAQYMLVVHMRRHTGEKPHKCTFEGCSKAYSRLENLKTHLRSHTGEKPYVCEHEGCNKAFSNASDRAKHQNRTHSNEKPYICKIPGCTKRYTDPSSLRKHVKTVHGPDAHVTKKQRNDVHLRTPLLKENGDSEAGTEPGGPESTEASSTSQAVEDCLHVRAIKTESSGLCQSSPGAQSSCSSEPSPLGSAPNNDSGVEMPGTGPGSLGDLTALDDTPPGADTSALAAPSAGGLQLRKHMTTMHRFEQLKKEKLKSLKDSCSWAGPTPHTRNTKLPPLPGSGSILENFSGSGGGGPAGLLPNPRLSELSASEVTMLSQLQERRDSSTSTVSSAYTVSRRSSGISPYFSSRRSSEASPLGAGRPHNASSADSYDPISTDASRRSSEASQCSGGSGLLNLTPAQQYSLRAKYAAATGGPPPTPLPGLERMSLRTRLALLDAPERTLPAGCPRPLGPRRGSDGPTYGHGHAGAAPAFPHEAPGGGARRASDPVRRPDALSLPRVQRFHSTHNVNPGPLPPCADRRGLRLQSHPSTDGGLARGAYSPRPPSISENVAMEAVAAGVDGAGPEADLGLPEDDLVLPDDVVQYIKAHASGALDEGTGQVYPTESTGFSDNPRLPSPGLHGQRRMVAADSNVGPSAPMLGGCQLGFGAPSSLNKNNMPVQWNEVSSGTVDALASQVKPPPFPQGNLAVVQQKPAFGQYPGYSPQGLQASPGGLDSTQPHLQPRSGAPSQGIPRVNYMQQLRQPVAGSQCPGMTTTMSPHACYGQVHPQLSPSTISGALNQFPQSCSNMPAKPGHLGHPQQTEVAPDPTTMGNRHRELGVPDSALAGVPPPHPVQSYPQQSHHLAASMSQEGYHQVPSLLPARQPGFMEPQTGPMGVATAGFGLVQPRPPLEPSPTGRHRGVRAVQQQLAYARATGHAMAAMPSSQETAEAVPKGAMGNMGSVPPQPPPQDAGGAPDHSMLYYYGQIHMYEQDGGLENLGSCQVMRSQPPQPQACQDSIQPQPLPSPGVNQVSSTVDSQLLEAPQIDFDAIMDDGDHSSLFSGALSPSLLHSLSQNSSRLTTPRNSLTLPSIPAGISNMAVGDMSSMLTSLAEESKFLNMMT
UniProt P45983: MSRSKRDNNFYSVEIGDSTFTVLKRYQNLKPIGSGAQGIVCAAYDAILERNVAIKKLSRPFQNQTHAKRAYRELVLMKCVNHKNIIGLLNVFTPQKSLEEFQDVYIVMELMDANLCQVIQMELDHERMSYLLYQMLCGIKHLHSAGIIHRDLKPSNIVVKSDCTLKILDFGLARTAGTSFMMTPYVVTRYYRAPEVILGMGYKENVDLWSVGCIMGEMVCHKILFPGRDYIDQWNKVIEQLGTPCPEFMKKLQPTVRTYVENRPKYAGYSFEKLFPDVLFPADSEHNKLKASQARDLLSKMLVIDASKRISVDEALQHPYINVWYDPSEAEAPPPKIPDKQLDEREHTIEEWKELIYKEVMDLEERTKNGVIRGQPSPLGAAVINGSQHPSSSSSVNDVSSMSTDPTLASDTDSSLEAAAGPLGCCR
Flag-tagged JNK1 (P45983-2, form named): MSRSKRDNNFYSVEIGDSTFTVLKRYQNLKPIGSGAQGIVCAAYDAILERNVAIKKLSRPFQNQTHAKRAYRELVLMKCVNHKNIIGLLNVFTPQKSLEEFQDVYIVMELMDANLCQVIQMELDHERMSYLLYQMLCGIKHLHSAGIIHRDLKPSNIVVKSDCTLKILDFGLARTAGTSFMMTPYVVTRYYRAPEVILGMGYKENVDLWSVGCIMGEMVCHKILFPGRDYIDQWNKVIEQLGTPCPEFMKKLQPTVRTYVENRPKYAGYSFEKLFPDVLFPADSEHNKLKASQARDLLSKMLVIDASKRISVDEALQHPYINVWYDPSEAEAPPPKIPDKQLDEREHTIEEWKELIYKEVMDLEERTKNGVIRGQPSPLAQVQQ

In assay [1] the target is Myc-tagged Gli2 (UniProt P10070). Put plainly: co-IP; 293T cells expressing Flag-tagged JNK1 and Myc-tagged Gli2, treated with PGE2, SP600125 and MG132 as indicated for 1 h; lysis buffer 50 mM Tris pH 8.0, 150 mM NaCl, 10% glycerol, 1 mM EDTA, 50 mM NaF, 0.1% NP-40; antibody overnight at 4 °C, Protein A/G Plus-Agarose; western blot. A general note: Immunoblotting shows a protein as a band on a membrane.

Assay [2] concerns the target endogenous Gli2 (human (endogenous in 293T)) (UniProt P10070). Put plainly: co-IP; endogenous proteins in 293T cells treated with PGE2, SP600125 and MG132 as indicated for 1 h; lysis buffer 50 mM Tris pH 8.0, 150 mM NaCl, 10% glycerol, 1 mM EDTA, 50 mM NaF, 0.1% NP-40; antibody overnight at 4 °C, Protein A/G Plus-Agarose; western blot.

No constants are given. Whether binding was seen depends on the method and setting. In cells and extracts the contact can be indirect. Some entries that bind do so weakly or less than the wild type.

Consider “Flag-tagged JNK1 (from UniProt P45983-2 1-384) (enzyme)”, for which the binding result in assay [1] was “binds”.
Regarding “endogenous JNK1 (from UniProt P45983 1-427) (enzyme)”, the binding entry in assay [2] is “binds”.
